In publication PMC6707248:
Results are given in words; binding and its absence hold for the method and conditions named. Binding seen in cells or lysates may run through a third protein. These calls come from enrichment with a bait or labelling near it, and not all partners need be listed.

Sequences of proteins named here, by UniProt entry; tags and fusion partners are left off.
UniProt Q9Y3D8: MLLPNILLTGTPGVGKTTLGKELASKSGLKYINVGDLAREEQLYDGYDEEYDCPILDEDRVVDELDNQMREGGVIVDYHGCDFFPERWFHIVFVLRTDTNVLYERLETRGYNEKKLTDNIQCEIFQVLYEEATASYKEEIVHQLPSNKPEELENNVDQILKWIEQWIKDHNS
UniProt P06748: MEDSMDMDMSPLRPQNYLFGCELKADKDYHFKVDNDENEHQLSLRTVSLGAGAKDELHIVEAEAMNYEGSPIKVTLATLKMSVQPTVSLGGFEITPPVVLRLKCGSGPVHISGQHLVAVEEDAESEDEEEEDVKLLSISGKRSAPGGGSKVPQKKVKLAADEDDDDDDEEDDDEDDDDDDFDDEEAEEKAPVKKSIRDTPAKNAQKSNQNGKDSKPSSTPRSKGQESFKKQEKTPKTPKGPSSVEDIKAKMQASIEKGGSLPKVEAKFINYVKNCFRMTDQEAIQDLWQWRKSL

Biological target: Flag-hCINAP (human coilin-interacting nuclear ATPase protein) (human) (UniProt Q9Y3D8)
Assay: affinity purification with mass spectrometry; HEK293T with Flag-empty vector or Flag-hCINAP, with or without IR (6 Gy); lysate purified on anti-Flag M2 affinity beads

## endogenous NPM1 (nucleophosmin) (from UniProt P06748 1-294)
  binding: binds
